The list shows a part of the results. These are further read-outs of the screen, such as a control signal, another cell line or another target. No call is given for them. Most of these compounds were active or inconclusive in the main read-out, so they are no random draw. The note in brackets gives the kind of curve behind each potency; many fits are weak.
Experiment: qHTS Assay for Lipid Storage Modulators in Drosophila S3 Cells;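 on cell number change: cells counted by Cell Tracker Red CMTPX staining in the red channel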
Conditions: BODIPY lipid droplet fluorescence, 18-24 h; for cell number change: measured here: cell count max response, cells fed with added oleic acid
Summary of the method: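 Drosophila S3 cells got compounds at several concentrations plus oleic acid (400 uM solution). Laser-scanning cytometry with 488 nm excitation read lipid droplets at 500-530 nm and cells at 575-640 nm. Percent activity was relative to 20 uM Triacsin C.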

[1] = measured here: lipid fluorescence (Fed channel) AC50, cells fed with added oleic acid
[2] = measured here: cell number channel AC50, cells fed with added oleic acid

SMILES	AC50 [1]	cell number change	AC50 [2]
CC12CCC(=O)C=C1CCC1C2C(=O)CC2(C)C1CCC2(O)C(=O)CO (stereo not drawn)	20.6 µM [falling, partial curve]	–	–
CCn1c(CC(=O)Nc2ccc(F)cc2)nnc1SCC(=O)NC1=NCCS1	–	-4.17%	–
COc1ccc(C(=O)NC(=S)NC2CCCCC2)cc1	2.91 µM [rising, single point]	-2.89%	–
Cc1noc(C)c1S(=O)(=O)NCc1ccc2c(c1)OCO2	–	-2.53%	–
COCCn1nnnc1C(c1ccc(OC)c(OC)c1)N1CCN(c2nc3ccccc3s2)CC1 (stereo not drawn)	1.84 µM [rising, partial curve]	2.87%	–
Cc1ccc(OCC(=O)N(Cc2ccc(N(C)C)cc2)C2CCS(=O)(=O)C2)cc1 (stereo not drawn)	0.116 µM [falling, single point]	40.2%	18.4 µM [rising, single point]
Cc1cc(C)c(NC(=O)C[N+](C)(C)CC(O)COc2cccc3ccccc23)c(C)c1 (stereo not drawn)	5.17 µM [rising, single point]	12.4%	4.61 µM [rising, single point]
CN(C)c1ccc(-c2nnn(CC(=O)Nc3ccc4c(c3)OCCO4)n2)cc1	20.6 µM [falling, single point]	-24.9%	–
Nc1nc(SCc2ccccc2)n[nH]1	–	-3.4%	–
COc1ccccc1OCCNC(=O)CSC(=S)N1CCCC1	–	-99.9%	29.1 µM [falling, single point]
COc1ccc(Cl)cc1S(=O)(=O)N1CCC(C(=O)N2CCOCC2)CC1	3.66 µM [rising, full curve]	5.78%	–
CCOC(=O)Cc1csc(NC(=O)c2ccc(Br)o2)n1	–	–	4.61 µM [falling, single point]
Cn1c(Oc2ccc(Cl)cc2)c(C=O)c2ccccc21	18.4 µM [falling, single point]	-31.2%	18.4 µM [falling, single point]
CCCCc1ccc(NC(=O)CSCc2cc(=O)[nH][nH]2)cc1	0.731 µM [rising, single point]	18.3%	–
C(=NC12CN3CN(CN(C3)C1)C2)c1ccc2c(c1)OCO2	20.6 µM [falling, partial curve, poor fit]	–	–
CCCOc1ccc(C(=O)N(CC(C)C)c2c(N)n(Cc3ccccc3)c(=O)[nH]c2=O)cc1	–	95%	–
COc1ccc(Cc2nc3ccc(C(=O)N(C)Cc4nccs4)cc3o2)cc1OC	5.17 µM [falling, full curve]	-64.8%	18.4 µM [falling, single point]
CN(Cc1ccc(F)cc1)C(=O)c1cc(S(=O)(=O)N2CCCCC2)ccc1N1CCOCC1	0.00461 µM [rising, full curve, poor fit]	97.4%	29.1 µM [rising, single point]
O=C(CCC1CCCCC1)Nc1ccccc1-c1ccccc1	6.51 µM [falling, single point]	117%	23.1 µM [rising, single point]

SMILES	AC50 [1]	cell number change	AC50 [2]
Cc1cccc(NC(=S)N(CCCN2CCCC2)Cc2cccn2Cc2ccc(Cl)cc2)c1	–	-7.38%	0.731 µM [falling, single point]
O=C(CCN1C(=O)c2ccccc2C1=O)NCCN1CCOCC1	–	-2.66%	–
CCOC(=O)c1cc2c(C)n(-c3ccc(N(C)C)cc3)c(C)c2cc(C(=O)OCC)c1=O	–	7.43%	–
O=C(CNC(=O)N1CC(=O)Nc2ccccc21)Nc1ccccc1	–	21%	0.13 µM [rising, full curve, poor fit]
O=C1N(c2ccccc2)C(c2ccccc2)N2CCCN12 (stereo not drawn)	29.1 µM [falling, single point]	-48.4%	29.1 µM [falling, single point]
COc1ccc(-c2nn(-c3ccccc3)cc2C(=O)OCC(=O)c2ccc(C)c([N+](=O)[O-])c2)cc1	–	19.7%	0.651 µM [falling, single point]
COc1cccc(/C=C2\SC(=S)N(CC3CCCO3)C2=O)c1 (stereo not drawn)	6.51 µM [rising, partial curve]	–	5.8 µM [rising, single point]
C=CCc1c(C)nn(CC(=O)O)c1-c1ccccc1	4.11 µM [falling, single point]	11.9%	–
CS(=O)(=O)N(CC(=O)NCCSCc1cccc(Cl)c1)c1ccc2c(c1)OCO2	0.731 µM [falling, single point]	4.32%	–
CC[n+]1c(C)sc2cc(OC)ccc21	6.51 µM [falling, single point]	11.1%	–
O=C(O)c1ccccc1C(=O)Nc1ccc(Oc2cccc(C(F)(F)F)c2)nc1	0.0206 µM [rising, full curve, poor fit]	15.9%	–
On1nnc2ccc3ccccc3c21	0.0326 µM [falling, full curve, poor fit]	–	–
CCCCNCCOCCOc1ccc(C)cc1[N+](=O)[O-]	29.1 µM [rising, single point]	108%	11.6 µM [rising, partial curve]
CCN(CC)S(=O)(=O)c1ccc(Cl)c(NC(=O)COc2ccc(OC)cc2)c1	0.366 µM [rising, partial curve]	–	6.51 µM [rising, single point]
Cc1cccc(N2CCN(C(=S)Nc3ccc4nc(N5CCN(C)CC5)cc(C)c4c3)CC2)c1C	1.84 µM [falling, partial curve]	-27.7%	–
CCN(CC)c1cc(Cl)c2nonc2c1N	20.6 µM [falling, partial curve]	-37.1%	14.6 µM [falling, partial curve]
COc1ccc(-c2cc(=O)c3ccccc3s2)cc1	2.06 µM [falling, partial curve]	–	6.51 µM [rising, single point]
Cc1c(Cl)c([N+](=O)[O-])nn1CC(=O)NC(C)C1CC2CCC1C2 (stereo not drawn)	18.4 µM [falling, partial curve]	8.36%	–

Nothing new here: 2 of the compounds above.
SMILES	AC50 [1]	cell number change	AC50 [2]
COc1cccc(/C=C2\SC(=S)N(CC3CCCO3)C2=O)c1 (stereo not drawn)	6.51 µM [rising, partial curve]	–	5.8 µM [rising, single point]
C=CCc1c(C)nn(CC(=O)O)c1-c1ccccc1	4.11 µM [falling, single point]	11.9%	–
